## Screening data

Data taken from PubChem BioAssay AID1851, deposited by NCATS (2009).

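Recombinant human CYP2D6 and CYP2C9 enzymes turning a pro-luciferin substrate into light, read by luminescence; the incubation time is not stated here. Percent change in enzyme activity at the series' top concentration, where 0 is the no-effect control and more negative values mean stronger inhibition. Calls come from the fitted dose curve: inactive means no well-fitted curve with a large enough effect, even if single readings are sizeable.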

Values are in %. All entries here are filed as inactive. Only inactive entries are shown; hits are left out here.

| SMILES | condition | activity (%) |
|---|---|---|
| `C[N+](C)(C)CCCCCCCCCC[N+](C)(C)C` | Cytochrome P450 2C9 (Homo sapiens); p450-cyp2c9; at 57.1 µM (top of the series) | 22.18 |
| `CN1CCN(S(=O)(=O)c2ccc3[nH]cc(C(=O)O)c(=O)c3c2)CC1` | Cytochrome P450 2D6 (Homo sapiens); p450-cyp2d6; at 57.1 µM (top of the series) | 26.55 |
| `Cn1c(=O)n2n(c1=O)[C@H]1[C@H](O)[C@H]3O[C@H]3C(=O)[C@H]1CC2` | Cytochrome P450 2D6 (Homo sapiens); p450-cyp2d6; at 11.4 µM (top of the series) | -2.408 |
| `Cc1cc(C)n(-c2ccc(Cl)c(C(=O)O)n2)n1` | Cytochrome P450 2D6 (Homo sapiens); p450-cyp2d6; at 57.1 µM (top of the series) | 7.031 |
| `NCCNCC1CCNCC1` | Cytochrome P450 2D6 (Homo sapiens); p450-cyp2d6; at 11.4 µM (top of the series) | 3.167 |
| `C[C@@H]1/C=C\CC(=O)OC[C@H]2O[C@@H](C=C[C@@H]2O)[C@H](C)/C=C\CC(=O)OC[C@H]2O[C@H]1C=C[C@@H]2O` | Cytochrome P450 2D6 (Homo sapiens); p450-cyp2d6; at 11.4 µM (top of the series) | 4.66 |
| `CS(=N)(=O)CC[C@H](N)P(=O)(O)O` (some centres undefined) | Cytochrome P450 2C9 (Homo sapiens); p450-cyp2c9; at 11.4 µM (top of the series) | 3.632 |
| `COC(=O)Nc1nc2ccc(Sc3ccccc3)cc2[nH]1` | Cytochrome P450 2D6 (Homo sapiens); p450-cyp2d6; at 25.6 µM (top of the series) | -1.078 |
| `Cc1ccc(S(=O)(=O)O[C@H]2CN3CCC2CC3)cc1` | Cytochrome P450 2C9 (Homo sapiens); p450-cyp2c9; at 11.4 µM (top of the series) | -4.818 |
| `Cc1nc2ncnn2c(C)c1CCC(=O)N1CCN(C(=O)c2ccco2)CC1` | Cytochrome P450 2D6 (Homo sapiens); p450-cyp2d6; at 57.1 µM (top of the series) | -5.705 |
| `CC[C@]1(C)CC(=O)NC1=O` | Cytochrome P450 2D6 (Homo sapiens); p450-cyp2d6; at 25.6 µM (top of the series) | -0.6897 |
| `C/C(CCN1CCc2nc(-c3ccccc3)c(-c3ccccc3)cc2C1)=N\O[C@@H](C)c1cn([C@@H]2COC[C@@H]2O)nn1` | Cytochrome P450 2D6 (Homo sapiens); p450-cyp2d6; at 11.4 µM (top of the series) | -13.81 |
| `NCC1(CC(=O)O)CCCCC1` | Cytochrome P450 2C9 (Homo sapiens); p450-cyp2c9; at 25.6 µM (top of the series) | -3.108 |
| `O=c1[nH]n(-c2cccc(Cl)c2)c2ncccc12` | Cytochrome P450 2D6 (Homo sapiens); p450-cyp2d6; at 57.1 µM (top of the series) | 8.681 |
| `CC[C@]1(C)CC(=O)NC1=O` | Cytochrome P450 2D6 (Homo sapiens); p450-cyp2d6; at 57.1 µM (top of the series) | -4.924 |
| `CCN1C[C@@]2(COC)CC[C@H](OC)[C@]34[C@@H]1[C@]1(OCO[C@@]15C[C@@H](OC)C1C[C@H]3[C@H]5[C@@H]1OC)[C@H](O)[C@@H]24` | Cytochrome P450 2C9 (Homo sapiens); p450-cyp2c9; at 25.6 µM (top of the series) | 7.821 |
| `COc1ccc(NC(=O)N2CC3(CCN(C(=O)c4cccn4C)CC3)C2)cc1` | Cytochrome P450 2D6 (Homo sapiens); p450-cyp2d6; at 57.1 µM (top of the series) | -1.084 |

Once more, the final 2:

| SMILES | condition | activity (%) |
|---|---|---|
| `CCN1C[C@@]2(COC)CC[C@H](OC)[C@]34[C@@H]1[C@]1(OCO[C@@]15C[C@@H](OC)C1C[C@H]3[C@H]5[C@@H]1OC)[C@H](O)[C@@H]24` | Cytochrome P450 2C9 (Homo sapiens); p450-cyp2c9; at 25.6 µM (top of the series) | 7.821 |
| `COc1ccc(NC(=O)N2CC3(CCN(C(=O)c4cccn4C)CC3)C2)cc1` | Cytochrome P450 2D6 (Homo sapiens); p450-cyp2d6; at 57.1 µM (top of the series) | -1.084 |